For at least one entry, the source does not settle the construct or the ends of the probe. Where cells or extracts were used, other partners may take part. For some of these results: A weaker result is weaker than the reference pair of the same experiment.
How the values were obtained:
STAT3-D427H-GFP [1] = molecular target: STAT3-D427H-GFP (UniProt P40763); assay: EMSA; details: EMSA: 4 µl whole cell extract + 8 µl EMSA buffer (composition not given) with poly(dI-dC), 1 ng probe, 15 min (RT in competition assay; chase 10 min on ice), protein in an extract, protein details: GFP fusion, label: 33P (Klenow end-fill)
STAT3-D427H-SNAP [2] = molecular target: STAT3-D427H-SNAP (UniProt P40763); assay: EMSA; details: EMSA: 4 µl whole cell extract + 8 µl EMSA buffer (composition not given) with poly(dI-dC), 1 ng probe, 15 min (RT in competition assay; chase 10 min on ice), protein in an extract, protein details: SNAP fusion, label: 33P (Klenow end-fill)
STAT3-F174A-GFP = STAT3-F174A-GFP (UniProt P40763); assay: EMSA; details: IL-6 or IFNg stimulated, increased, similar to D427H; EMSA: 4 µl whole cell extract + 8 µl EMSA buffer (composition not given) with poly(dI-dC), 1 ng probe, 15 min (RT in competition assay; chase 10 min on ice); protein in an extract; protein details: GFP fusion; label: 33P (Klenow end-fill)
STAT3-F174A-SNAP = STAT3-F174A-SNAP (UniProt P40763); assay: EMSA; details: IL-6 or IFNg stimulated, increased, similar to D427H; EMSA: 4 µl whole cell extract + 8 µl EMSA buffer (composition not given) with poly(dI-dC), 1 ng probe, 15 min (RT in competition assay; chase 10 min on ice); protein in an extract; protein details: SNAP fusion; label: 33P (Klenow end-fill)
STAT3-WT-GFP [3] = molecular target: STAT3-WT-GFP (UniProt P40763); assay: EMSA; details: EMSA: 4 µl whole cell extract + 8 µl EMSA buffer (composition not given) with poly(dI-dC), 1 ng probe, 15 min (RT in competition assay; chase 10 min on ice), protein in an extract, protein details: GFP fusion, label: 33P (Klenow end-fill)
STAT3-WT-SNAP [4] = molecular target: STAT3-WT-SNAP (UniProt P40763); assay: EMSA; details: EMSA: 4 µl whole cell extract + 8 µl EMSA buffer (composition not given) with poly(dI-dC), 1 ng probe, 15 min (RT in competition assay; chase 10 min on ice), protein in an extract, protein details: SNAP fusion, label: 33P (Klenow end-fill)
STAT3-D427H-GFP [5] = molecular target: STAT3-D427H-GFP (UniProt P40763); assay: competition with a labelled probe; details: IL-6, 750x unlabelled M67 chase 10 min: complex resists, reduced dissociation; EMSA: 4 µl whole cell extract + 8 µl EMSA buffer (composition not given) with poly(dI-dC), 1 ng probe, 15 min (RT in competition assay; chase 10 min on ice); protein in an extract; protein details: GFP fusion; label: 33P (Klenow end-fill)
STAT3-D427H-SNAP [6] = molecular target: STAT3-D427H-SNAP (UniProt P40763); assay: competition with a labelled probe; details: IL-6, 750x unlabelled M67 chase 10 min: complex resists, reduced dissociation; EMSA: 4 µl whole cell extract + 8 µl EMSA buffer (composition not given) with poly(dI-dC), 1 ng probe, 15 min (RT in competition assay; chase 10 min on ice); protein in an extract; protein details: SNAP fusion; label: 33P (Klenow end-fill)
STAT3-WT-GFP [7] = molecular target: STAT3-WT-GFP (UniProt P40763); assay: competition with a labelled probe; details: IL-6, 750x unlabelled M67 chase 10 min: complete loss of labelled complex; EMSA: 4 µl whole cell extract + 8 µl EMSA buffer (composition not given) with poly(dI-dC), 1 ng probe, 15 min (RT in competition assay; chase 10 min on ice); protein in an extract; protein details: GFP fusion; label: 33P (Klenow end-fill)
STAT3-WT-SNAP [8] = molecular target: STAT3-WT-SNAP (UniProt P40763); assay: competition with a labelled probe; details: IL-6, 750x unlabelled M67 chase 10 min: complete loss of labelled complex; EMSA: 4 µl whole cell extract + 8 µl EMSA buffer (composition not given) with poly(dI-dC), 1 ng probe, 15 min (RT in competition assay; chase 10 min on ice); protein in an extract; protein details: SNAP fusion; label: 33P (Klenow end-fill)
[9] = IL-6 or IFNg stimulated, increased vs WT
[10] = IFNg stimulated, increased tetramer and dimer vs WT
[11] = IFNg stimulated, weak, predominantly dimer

Protein sequences, listed by entry. Tags and fused reporters are not part of them.
UniProt P40763, whole entry D427H: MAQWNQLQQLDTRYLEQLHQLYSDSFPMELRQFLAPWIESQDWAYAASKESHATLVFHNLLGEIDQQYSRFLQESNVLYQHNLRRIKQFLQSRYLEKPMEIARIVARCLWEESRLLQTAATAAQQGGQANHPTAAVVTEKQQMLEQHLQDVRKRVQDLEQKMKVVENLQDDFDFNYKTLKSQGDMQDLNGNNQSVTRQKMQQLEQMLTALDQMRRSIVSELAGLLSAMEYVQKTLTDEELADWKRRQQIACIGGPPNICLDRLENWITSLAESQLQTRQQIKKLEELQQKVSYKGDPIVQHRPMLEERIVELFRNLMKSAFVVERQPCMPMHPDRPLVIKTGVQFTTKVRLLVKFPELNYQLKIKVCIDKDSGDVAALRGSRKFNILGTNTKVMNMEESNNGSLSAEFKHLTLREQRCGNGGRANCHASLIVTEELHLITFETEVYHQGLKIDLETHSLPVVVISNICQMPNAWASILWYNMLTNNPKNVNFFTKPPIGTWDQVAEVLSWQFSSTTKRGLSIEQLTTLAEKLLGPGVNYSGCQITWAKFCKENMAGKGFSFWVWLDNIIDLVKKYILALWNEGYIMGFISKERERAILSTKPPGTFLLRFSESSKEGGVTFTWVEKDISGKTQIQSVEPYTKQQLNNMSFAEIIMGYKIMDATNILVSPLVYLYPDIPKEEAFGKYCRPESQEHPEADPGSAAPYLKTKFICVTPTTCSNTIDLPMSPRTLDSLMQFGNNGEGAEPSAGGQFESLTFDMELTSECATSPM
UniProt P40763, whole entry F174A: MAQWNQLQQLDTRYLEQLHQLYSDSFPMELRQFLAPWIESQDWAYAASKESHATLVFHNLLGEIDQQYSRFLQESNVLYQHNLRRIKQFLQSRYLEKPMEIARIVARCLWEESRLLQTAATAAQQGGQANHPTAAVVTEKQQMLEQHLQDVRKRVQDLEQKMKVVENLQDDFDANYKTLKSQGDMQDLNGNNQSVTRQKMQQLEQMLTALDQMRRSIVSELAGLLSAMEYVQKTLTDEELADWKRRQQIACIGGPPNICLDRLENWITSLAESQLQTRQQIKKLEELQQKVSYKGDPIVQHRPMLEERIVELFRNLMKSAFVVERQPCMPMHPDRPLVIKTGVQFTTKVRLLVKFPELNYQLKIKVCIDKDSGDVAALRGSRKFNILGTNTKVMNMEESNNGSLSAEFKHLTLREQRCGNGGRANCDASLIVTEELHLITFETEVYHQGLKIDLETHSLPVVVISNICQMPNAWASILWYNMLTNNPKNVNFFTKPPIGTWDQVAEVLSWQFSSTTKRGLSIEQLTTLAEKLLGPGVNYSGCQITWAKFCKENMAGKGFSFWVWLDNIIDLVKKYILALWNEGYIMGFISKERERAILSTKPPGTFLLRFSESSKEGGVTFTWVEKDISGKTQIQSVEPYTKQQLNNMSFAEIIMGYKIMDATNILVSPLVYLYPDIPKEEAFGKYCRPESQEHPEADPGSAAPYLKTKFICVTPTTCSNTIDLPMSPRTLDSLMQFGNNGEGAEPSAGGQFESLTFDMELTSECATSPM
UniProt P40763, whole entry: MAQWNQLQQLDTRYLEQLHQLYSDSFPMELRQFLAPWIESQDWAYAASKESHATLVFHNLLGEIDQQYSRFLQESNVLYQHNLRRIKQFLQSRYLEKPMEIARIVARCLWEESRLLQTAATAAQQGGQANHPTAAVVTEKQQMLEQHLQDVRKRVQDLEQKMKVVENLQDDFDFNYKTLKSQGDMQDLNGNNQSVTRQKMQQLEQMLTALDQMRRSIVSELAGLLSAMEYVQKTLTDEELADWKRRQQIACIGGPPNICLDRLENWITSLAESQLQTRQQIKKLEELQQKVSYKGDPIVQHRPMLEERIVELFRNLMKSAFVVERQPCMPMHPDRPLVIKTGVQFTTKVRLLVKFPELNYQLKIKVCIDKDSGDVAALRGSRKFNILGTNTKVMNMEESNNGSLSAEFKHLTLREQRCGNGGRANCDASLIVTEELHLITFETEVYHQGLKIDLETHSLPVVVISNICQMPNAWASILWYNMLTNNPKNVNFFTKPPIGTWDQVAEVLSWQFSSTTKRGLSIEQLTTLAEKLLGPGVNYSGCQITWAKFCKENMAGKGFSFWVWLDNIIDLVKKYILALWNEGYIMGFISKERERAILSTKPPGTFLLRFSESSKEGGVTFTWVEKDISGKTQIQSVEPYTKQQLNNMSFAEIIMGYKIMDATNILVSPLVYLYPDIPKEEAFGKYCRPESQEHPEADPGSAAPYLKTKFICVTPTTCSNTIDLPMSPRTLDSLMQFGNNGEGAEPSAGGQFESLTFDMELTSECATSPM

TTTTCGACATTTCCCGTAAATCTG (double strand) [M67 (SIE/GAS)]
binding result (STAT3-D427H-GFP [1]; [9]): binds
binding result (STAT3-D427H-SNAP [2]; [9]): binds
binding result (STAT3-F174A-GFP): binds
binding result (STAT3-F174A-SNAP): binds
binding result (STAT3-WT-GFP [3]; IL-6 or IFNg stimulated): binds
binding result (STAT3-WT-SNAP [4]; IL-6 or IFNg stimulated): binds
binding result (STAT3-D427H-GFP [5]): binds
binding result (STAT3-D427H-SNAP [6]): binds
binding result (STAT3-WT-GFP [7]): binds
binding result (STAT3-WT-SNAP [8]): binds

TTTTCGTTTACCCCAAATTGACGGATTTACCCCAAC (double strand) [2xnonGAS]
binding result (STAT3-D427H-GFP [1]; IFNg stimulated, weak binding): binds more weakly
binding result (STAT3-D427H-SNAP [2]; IFNg stimulated, weak binding): binds more weakly

TTTTCGTTTCCCCGAAATTGACGGATTTACCCCAAC (double strand) [GAS-nonGAS]
binding result (STAT3-D427H-GFP [1]; [10]): binds
binding result (STAT3-D427H-SNAP [2]; [10]): binds
binding result (STAT3-WT-GFP [3]; [11]): binds more weakly
binding result (STAT3-WT-SNAP [4]; [11]): binds more weakly

Source: article PMC9233852
